In patent US20250182853A1 one finds binding data, which are given here for 5 molecules.

Sequences of proteins named here, by UniProt entry; tags and fusion partners are left off. Residues count along the entry.
UniProt P02701, residues 25-152: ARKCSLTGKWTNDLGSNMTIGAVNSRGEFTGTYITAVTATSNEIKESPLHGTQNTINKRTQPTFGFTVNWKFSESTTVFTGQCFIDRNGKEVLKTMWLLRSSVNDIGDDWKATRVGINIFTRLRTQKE
UniProt P17931: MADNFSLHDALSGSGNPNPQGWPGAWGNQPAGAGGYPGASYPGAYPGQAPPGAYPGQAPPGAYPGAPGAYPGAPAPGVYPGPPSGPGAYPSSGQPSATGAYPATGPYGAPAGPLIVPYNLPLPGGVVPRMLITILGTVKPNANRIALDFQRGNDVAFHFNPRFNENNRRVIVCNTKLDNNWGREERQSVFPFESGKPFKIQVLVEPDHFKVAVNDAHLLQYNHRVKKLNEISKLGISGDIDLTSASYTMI

Residue numbers refer to the chain shown, from its start. Results are given in words; binding and its absence hold for the method and conditions named. Some results given as binding are weak or reduced against the parent protein; the word gives no strength.

One assay has as its target NeutrAvidin (UniProt P02701). Put plainly: ELISA, purified monomer on wells with NeutrAvidin only.
Assay [1] deals with Galectin-3 (UniProt P17931). Put plainly: ELISA, purified monomer on Galectin-3 immobilized via NeutrAvidin.
Assay [2] deals with Galectin-3 (UniProt P17931). Put plainly: monoclonal phage ELISA, mutant displayed on M13 phage.

B1: C6 mutant (2u2f mutant) (designed binder)
chain: AHKLFIGGLPNGDGDDQVKELLTSFGPLKAFNLVKDSATGLSKGYAFAEYVDINVTDQAIAGLNGGYPTDSCLLVQRASVGAKNADYKDDDDKLEHHHHHH
For B1, the binding result with NeutrAvidin, with Galectin-3 [1] and with Galectin-3 [2] was “binds” in each case.

B2: 1E2 mutant (2u2f mutant from Cluster 1) (designed binder)
chain: AHKLFIGGLPVDYNDDQVKELLTSFGPLKAFNLVKDSATGLSKGYAFAEYVDINVTDQAIAGLNGNVCHLHTLLVQRASVGAKNADYKDDDDKLEHHHHHH
As for B2, in the assay with Galectin-3 [1], the binding entry was “binds”.

B3: 1H2 mutant (2u2f mutant from Cluster 1) (designed binder)
chain: B2 chain with N66S, V67G, C68S, H69R, L70I, H71R, T72A
Regarding B3, in the assay with Galectin-3 [1], the binding entry is “binds”.

B4: 4H5 mutant (2u2f mutant from Cluster 4) (designed binder)
chain: B2 chain with V11D, D12Y, N14G, N66R, V67F, C68Y, H69G, L70T, H71A
As to B4, the binding entry in the assay with Galectin-3 [1] is listed as “binds”.

B5: 3B5 mutant (2u2f mutant from Cluster 3) (designed binder)
chain: B2 chain with V11A, Y13G, N14D, N66F, V67A, C68T, H69S, L70R, H71F, T72S
Regarding B5, the binding entry in the assay with Galectin-3 [1] is listed as “binds”.
